The list shows a part of the results.

Common to all, as to assay: glycan array binding signal (z-score within array); higher = stronger binding
What all share (conditions): glycan notation: IUPAC condensed, linker removed

For experiment [1], the target named is Gal(b1-4)GlcNAc(b1-3)Gal(b1-4)Glc. Summed up: (§1)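 Glycan array data came from 3228 arrays in the Consortium for Functional Glycomics database, and only arrays with an available protein sequence were kept. Glycan names were put into IUPAC-condensed notation, and columns mapping to the same glycan were averaged. The binding signal is a within-array Z-score, averaged across arrays of one protein sequence run at different concentrations or buffers and across linkers. A negative Z-score can be read as non-binding.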

In experiment [2] the target is Gal(b1-4)GlcNAc(b1-3)Gal(b1-4)GlcNAc. Put shortly: as §1
Experiment [3] deals with Gal(b1-4)GlcNAc(b1-3)Gal(b1-4)GlcNAc(b1-2)Man(a1-3)[Gal(b1-4)GlcNAc(b1-3)Gal(b1-4)GlcNAc(b1-2)Man(a1-6)]Man(b1-4)GlcNAc(b1-4)GlcNAc. Summed up: as §1
For experiment [4], the target named is Gal(b1-4)GlcNAc(b1-3)Gal(b1-4)GlcNAc(b1-2)Man(a1-3)[Gal(b1-4)GlcNAc(b1-3)Gal(b1-4)GlcNAc(b1-2)Man(a1-6)]Man(b1-4)GlcNAc(b1-4)[Fuc(a1-6)]GlcNAc. Summed up:
as §1

The target of experiment [5] is Gal(b1-4)GlcNAc(b1-3)Gal(b1-4)GlcNAc(b1-2)[Gal(b1-4)GlcNAc(b1-3)Gal(b1-4)GlcNAc(b1-6)]Man(a1-6)[Gal(b1-4)GlcNAc(b1-3)Gal(b1-4)GlcNAc(b1-2)Man(a1-3)]Man(b1-4)GlcNAc(b1-4)GlcNAc. Put shortly: as §1
Experiment [6] has as its target Gal(b1-4)GlcNAc(b1-3)Gal(b1-4)GlcNAc(b1-2)[Gal(b1-4)GlcNAc(b1-3)Gal(b1-4)GlcNAc(b1-6)]Man(a1-6)[Gal(b1-4)GlcNAc(b1-3)Gal(b1-4)GlcNAc(b1-2)Man(a1-3)]Man(b1-4)GlcNAc(b1-4)[Fuc(a1-6)]GlcNAc. Summed up:
as §1

The target of experiment [7] is Gal(b1-4)GlcNAc(b1-3)Gal(b1-4)GlcNAc(b1-3)Gal(b1-4)GlcNAc. Summed up:
as §1

Experiment [8] addresses Gal(b1-4)GlcNAc(b1-3)Gal(b1-4)GlcNAc(b1-3)Gal(b1-4)GlcNAc(b1-2)Man(a1-3)[Gal(b1-4)GlcNAc(b1-3)Gal(b1-4)GlcNAc(b1-3)Gal(b1-4)GlcNAc(b1-2)Man(a1-6)]Man(b1-4)GlcNAc(b1-4)GlcNAc. Put shortly: as §1
Experiment [9] addresses Gal(b1-4)GlcNAc(b1-3)Gal(b1-4)GlcNAc(b1-3)Gal(b1-4)GlcNAc(b1-2)Man(a1-3)[Gal(b1-4)GlcNAc(b1-3)Gal(b1-4)GlcNAc(b1-3)Gal(b1-4)GlcNAc(b1-2)Man(a1-6)]Man(b1-4)GlcNAc(b1-4)[Fuc(a1-6)]GlcNAc. Put shortly: as §1
Experiment [10] concerns the target Gal(b1-4)GlcNAc(b1-3)Gal(b1-4)GlcNAc(b1-3)Gal(b1-4)GlcNAc(b1-2)[Gal(b1-4)GlcNAc(b1-3)Gal(b1-4)GlcNAc(b1-3)Gal(b1-4)GlcNAc(b1-6)]Man(a1-6)[Gal(b1-4)GlcNAc(b1-3)Gal(b1-4)GlcNAc(b1-3)Gal(b1-4)GlcNAc(b1-2)Man(a1-3)]Man(b1-4)GlcNAc(b1-4)[Fuc(a1-6)]GlcNAc. Summed up:
as §1

In experiment [11] the target is Gal(b1-4)GlcNAc(b1-3)Gal(b1-4)GlcNAc(b1-3)Gal(b1-4)GlcNAc(b1-3)Gal(b1-4)GlcNAc(b1-2)Man(a1-3)[Gal(b1-4)GlcNAc(b1-3)Gal(b1-4)GlcNAc(b1-3)Gal(b1-4)GlcNAc(b1-3)Gal(b1-4)GlcNAc(b1-2)Man(a1-6)]Man(b1-4)GlcNAc(b1-4)GlcNAc. Put shortly: as §1
Experiment [12] deals with Gal(b1-4)GlcNAc(b1-3)Gal(b1-4)GlcNAc(b1-3)Gal(b1-4)GlcNAc(b1-3)Gal(b1-4)GlcNAc(b1-2)Man(a1-3)[Gal(b1-4)GlcNAc(b1-3)Gal(b1-4)GlcNAc(b1-3)Gal(b1-4)GlcNAc(b1-3)Gal(b1-4)GlcNAc(b1-2)Man(a1-6)]Man(b1-4)GlcNAc(b1-4)[Fuc(a1-6)]GlcNAc. Put shortly:
as §1

In experiment [13] the target is Gal(b1-4)GlcNAc(b1-3)Gal(b1-4)GlcNAc(b1-3)Gal(b1-4)GlcNAc(b1-3)Gal(b1-4)GlcNAc(b1-2)[Gal(b1-4)GlcNAc(b1-3)Gal(b1-4)GlcNAc(b1-3)Gal(b1-4)GlcNAc(b1-3)Gal(b1-4)GlcNAc(b1-6)]Man(a1-6)[Gal(b1-4)GlcNAc(b1-3)Gal(b1-4)GlcNAc(b1-3)Gal(b1-4)GlcNAc(b1-3)Gal(b1-4)GlcNAc(b1-2)Man(a1-3)]Man(b1-4)GlcNAc(b1-4)[Fuc(a1-6)]GlcNAc. Put shortly: as §1
In experiment [14] the target is Gal(b1-4)GlcNAc(b1-3)Gal(b1-4)GlcNAc(b1-3)Gal(b1-4)GlcNAc(b1-3)Gal(b1-4)GlcNAc(b1-3)Gal(b1-4)GlcNAc(b1-2)Man(a1-3)[Gal(b1-4)GlcNAc(b1-3)Gal(b1-4)GlcNAc(b1-3)Gal(b1-4)GlcNAc(b1-3)Gal(b1-4)GlcNAc(b1-3)Gal(b1-4)GlcNAc(b1-2)Man(a1-6)]Man(b1-4)GlcNAc(b1-4)GlcNAc. Summed up: as §1
In experiment [15] the target is Gal(b1-4)GlcNAc(b1-3)Gal(b1-4)GlcNAc(b1-3)Gal(b1-4)GlcNAc(b1-3)Gal(b1-4)GlcNAc(b1-3)Gal(b1-4)GlcNAc(b1-2)Man(a1-3)[Gal(b1-4)GlcNAc(b1-3)Gal(b1-4)GlcNAc(b1-3)Gal(b1-4)GlcNAc(b1-3)Gal(b1-4)GlcNAc(b1-3)Gal(b1-4)GlcNAc(b1-2)Man(a1-6)]Man(b1-4)GlcNAc(b1-4)[Fuc(a1-6)]GlcNAc. Put shortly:
as §1

Experiment [16] deals with Gal(b1-4)GlcNAc(b1-3)Gal(b1-4)GlcNAc(b1-3)Gal(b1-4)GlcNAc(b1-3)Gal(b1-4)GlcNAc(b1-3)Gal(b1-4)GlcNAc(b1-2)[Gal(b1-4)GlcNAc(b1-3)Gal(b1-4)GlcNAc(b1-3)Gal(b1-4)GlcNAc(b1-3)Gal(b1-4)GlcNAc(b1-3)Gal(b1-4)GlcNAc(b1-6)]Man(a1-6)[Gal(b1-4)GlcNAc(b1-3)Gal(b1-4)GlcNAc(b1-3)Gal(b1-4)GlcNAc(b1-3)Gal(b1-4)GlcNAc(b1-3)Gal(b1-4)GlcNAc(b1-2)Man(a1-3)]Man(b1-4)GlcNAc(b1-4)[Fuc(a1-6)]GlcNAc. Put shortly:
as §1

Experiment [17] concerns the target Gal(b1-4)GlcNAc(b1-3)Gal(b1-4)GlcNAc(b1-3)Gal(b1-4)GlcNAc(b1-3)Gal(b1-4)GlcNAc(b1-3)Gal(b1-4)GlcNAc(b1-3)Gal(b1-4)GlcNAc(b1-2)Man(a1-3)[Gal(b1-4)GlcNAc(b1-3)Gal(b1-4)GlcNAc(b1-3)Gal(b1-4)GlcNAc(b1-3)Gal(b1-4)GlcNAc(b1-3)Gal(b1-4)GlcNAc(b1-3)Gal(b1-4)GlcNAc(b1-2)Man(a1-6)]Man(b1-4)GlcNAc(b1-4)GlcNAc. Put shortly: as §1
Experiment [18] addresses Gal(b1-4)GlcNAc(b1-3)Gal(b1-4)GlcNAc(b1-3)GalNAc. Summed up:
as §1

In experiment [19] the target is Gal(b1-4)GlcNAc(b1-3)Gal(b1-4)GlcNAc(b1-3)[Gal(b1-4)GlcNAc(b1-3)Gal(b1-4)GlcNAc(b1-6)]GalNAc. Summed up:
as §1

B1: PX14379D-pdi-530-26-530 (Parabacteroides distasonis) (protein)
chain: DETVYDKLPADDFGQSTAELNALIGNSHNTMKKFWTEYMHLSECSGSMAVTPTRRGGDWYDGGQYREIYMHTWTSQTSRVKSAWKAATEAIGTCNEAIRKLQNSEILTEEEKAQDVADLRGVRAFWIYVMMDYWGNIPLLTEFHPTDKVFPGNSSRQEVFDWLIQEVEEIKDICPPATTENYGSFTQGAAYSLLAKLYLNAEAWGVTFSGNAYQKVIDNCDKVMAMGYILEPNWKDNFSVTNENSKEAILAATFSSSDTGNDGNVKNELHNNTLHYKDYLSLGITASGTWNGICAQPEYVRLFDEEDARLDGTFLTGLMIDKSTGKPIMTDHNNELNHTIDVNMIPGMEYDGTNWSAVEQHDGARCFKWEFASDLTSSMGNDFHIFRLADIYLMKAEALLRGGGSVSEATALVNTIRERGYGNSDHNYATVTLKEVQLERRLELAWEVYSRQDDIRFGCFTTGMWPQSNCERKADDYLKLLPVSQDAWQVNPNLKQNPGYAAFSK
For B1, the “glycan array binding signal (z-score)” value was -0.582 in [1]; -0.907 in [2]; 2.97 in experiment [3]; 0.215 in experiment [4]; 0.627 in experiment [5]; 1.17 in experiment [6]. Also, the “glycan array binding signal (z-score)” value in [7] was -0.298; in experiment [8] it was 1.92; in experiment [9] it was 2.12; in experiment [10], 1.02; in [11], -0.62; in [12] it was 2.34. For the same molecule, the “glycan array binding signal (z-score)” value is 3.06 in experiment [13]; 0.811 in experiment [14]; 2.37 in experiment [15]; 1.59 in experiment [16]; 0.495 in experiment [17]; -0.343 in experiment [18]. In addition, in experiment [19], the “glycan array binding signal (z-score)” value is 0.36.
